Results from the supplement of paper PMC8728848.
The other results are listed elsewhere or left out.

How the values were obtained:
Assay in all cases: glycan array binding signal (z-score within array); higher = stronger binding
Settings in all cases: glycan notation: IUPAC condensed, linker removed
[1] = target: Fuc(a1-2)Gal(b1-4)GlcNAc(b1-3)Gal(b1-4)GlcNAc(b1-3)Gal(b1-4)GlcNAc
Outline: (§1)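 The binding signal is a Z-score computed within each array and averaged over linkers. Arrays of the same protein sequence at different concentrations or buffers were also averaged together. Data originate from 3228 arrays in the Consortium for Functional Glycomics database, kept only where the protein sequence was available.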

[2] = target: Fuc(a1-2)Gal(b1-4)GlcNAc(b1-3)GalNAc
Outline: as §1

[3] = target: Fuc(a1-2)Gal(b1-4)GlcNAc(b1-3)[Fuc(a1-2)Gal(b1-4)GlcNAc(b1-6)]GalNAc
Outline: as §1

[4] = target: Fuc(a1-2)Gal(b1-4)GlcNAc(b1-3)[Fuc(a1-3)[Gal(b1-4)]GlcNAc(b1-6)]Gal(b1-4)Glc
Outline: as §1

[5] = target: Fuc(a1-2)Gal(b1-4)GlcNAc(b1-6)GalNAc
Outline: as §1

[6] = target: Fuc(a1-2)Gal(b1-4)GlcNAc6S
Outline: as §1

[7] = target: Fuc(a1-2)Gal(b1-4)[Fuc(a1-3)]GlcNAc
Outline: as §1

[8] = target: Fuc(a1-2)Gal(b1-4)[Fuc(a1-3)]GlcNAc(b1-2)Man(a1-3)[Fuc(a1-2)Gal(b1-4)[Fuc(a1-3)]GlcNAc(b1-2)Man(a1-6)]Man(b1-4)GlcNAc(b1-4)[Fuc(a1-6)]GlcNAc
Outline: as §1

[9] = target: Fuc(a1-2)Gal(b1-4)[Fuc(a1-3)]GlcNAc(b1-2)[Fuc(a1-2)Gal(b1-4)[Fuc(a1-3)]GlcNAc(b1-4)]Man(a1-3)[Fuc(a1-2)Gal(b1-4)[Fuc(a1-3)]GlcNAc(b1-2)Man(a1-6)]Man(b1-4)GlcNAc(b1-4)GlcNAc
Outline: as §1

[10] = target: Fuc(a1-2)Gal(b1-4)[Fuc(a1-3)]GlcNAc(b1-3)Gal(b1-4)[Fuc(a1-3)]GlcNAc
Outline: as §1

[11] = target: Fuc(a1-2)Gal(b1-4)[Fuc(a1-3)]GlcNAc(b1-3)Gal(b1-4)[Fuc(a1-3)]GlcNAc(b1-3)Gal(b1-4)[Fuc(a1-3)]GlcNAc
Outline: as §1

[12] = target: Fuc(a1-2)Gal(b1-4)[Fuc(a1-3)]GlcNAc(b1-3)GalNAc
Outline: as §1

[13] = target: Fuc(a1-2)Gal(b1-4)[Fuc(a1-3)]GlcNAc(b1-3)[Neu5Ac(a2-6)Gal(b1-4)GlcNAc(b1-6)]Gal(b1-4)Glc
Outline: as §1

[14] = target: Fuc(a1-2)Gal3S(b1-4)GlcNAc
Outline: as §1

[15] = target: Fuc(a1-2)Gal6S(b1-3)GlcNAc
Outline: as §1

[16] = target: Fuc(a1-2)Gal6S(b1-3)GlcNAc6S
Outline: as §1

Fuc(a1-2)Gal6S(b1-4)Glc = target: Fuc(a1-2)Gal6S(b1-4)Glc
Outline: as §1

[17] = target: Fuc(a1-2)Gal6S(b1-4)Glc6S
Outline: as §1

Fuc(a1-2)[Gal(a1-3)]Gal = target: Fuc(a1-2)[Gal(a1-3)]Gal
Outline: as §1

[18] = target: Fuc(a1-2)[Gal(a1-3)]Gal(b1-3)GalNAc
Outline: as §1

[19] = target: Fuc(a1-2)[Gal(a1-3)]Gal(b1-3)GalNAc(b1-3)Gal(a1-4)Gal(b1-4)Glc
Outline: as §1

[20] = target: Fuc(a1-2)[Gal(a1-3)]Gal(b1-3)GlcNAc
Outline: as §1

[21] = target: Fuc(a1-2)[Gal(a1-3)]Gal(b1-3)GlcNAc(b1-2)Man(a1-3)[Fuc(a1-2)[Gal(a1-3)]Gal(b1-3)GlcNAc(b1-2)Man(a1-6)]Man(b1-4)GlcNAc(b1-4)GlcNAc
Outline: as §1

[22] = target: Fuc(a1-2)[Gal(a1-3)]Gal(b1-3)GlcNAc(b1-2)Man(a1-3)[Fuc(a1-2)[Gal(a1-3)]Gal(b1-3)GlcNAc(b1-2)Man(a1-6)]Man(b1-4)GlcNAc(b1-4)[Fuc(a1-6)]GlcNAc
Outline: as §1

[23] = target: Fuc(a1-2)[Gal(a1-3)]Gal(b1-3)GlcNAc(b1-3)GalNAc
Outline: as §1

[24] = target: Fuc(a1-2)[Gal(a1-3)]Gal(b1-3)GlcNAc(b1-6)GalNAc
Outline: as §1

[25] = target: Fuc(a1-2)[Gal(a1-3)]Gal(b1-4)Glc
Outline: as §1

[26] = target: Fuc(a1-2)[Gal(a1-3)]Gal(b1-4)GlcNAc
Outline: as §1

[27] = target: Fuc(a1-2)[Gal(a1-3)]Gal(b1-4)GlcNAc(b1-2)Man
Outline: as §1

[28] = target: Fuc(a1-2)[Gal(a1-3)]Gal(b1-4)GlcNAc(b1-2)Man(a1-3)[Fuc(a1-2)[Gal(a1-3)]Gal(b1-4)GlcNAc(b1-2)Man(a1-6)]Man(b1-4)GlcNAc(b1-4)GlcNAc
Outline: as §1

B1: PX9916F-bfa-443-24-443 (Bacteroides fragilis) (protein)
chain: DIRPVGSVIPQTAEEYRALLARAYLNVPNDRGLACLRSDEMLVNDNEYDRNSYGDIERWNDVSPFPGTSQFTWSNFYNVLFIANQVIESQKEITEGTPEVVNQLVGEAHLLRAYLHFVLVNLHGQPYTKSGALNSKSIPLKLDTDLEKTLGRNTVEEVYTSILSDIEHARELINKEKWETVFSYRFNVLSVDALQSRVSLYMGAWPKCLESAEAVLAKKSVLVDMNETPLALPNHFESVESITALEQVMGSSVNNAVWVPATFLALYQEGDKRLAAYFAAPDENGNRKSSKGGKREFSCTFRVGELYLNAAEAAANMDKLPHARMRLLELMRKRYTPEAYDKKENAVNVMDKNALISEILNERARELAFEGHRWFDLRRTTRPRMVKVLQGKTYILEQDDPRYTIPIPRDAIAANPGLAN
[1]
  glycan array binding signal (z-score): -0.637
[2]
  glycan array binding signal (z-score): 0.279
[3]
  glycan array binding signal (z-score): 0.024
[4]
  glycan array binding signal (z-score): -1.05
[5]
  glycan array binding signal (z-score): 1.4
[6]
  glycan array binding signal (z-score): -0.807
[7]
  glycan array binding signal (z-score): -0.386
[8]
  glycan array binding signal (z-score): 1.08
[9]
  glycan array binding signal (z-score): 2.44
[10]
  glycan array binding signal (z-score): -0.773
[11]
  glycan array binding signal (z-score): 0.451
[12]
  glycan array binding signal (z-score): -0.044
[13]
  glycan array binding signal (z-score): 1.41
[14]
  glycan array binding signal (z-score): 0.095
[15]
  glycan array binding signal (z-score): -0.051
[16]
  glycan array binding signal (z-score): -0.692
Fuc(a1-2)Gal6S(b1-4)Glc
  glycan array binding signal (z-score): 0.194
[17]
  glycan array binding signal (z-score): -0.448
Fuc(a1-2)[Gal(a1-3)]Gal
  glycan array binding signal (z-score): 0.165
[18]
  glycan array binding signal (z-score): 0.286
[19]
  glycan array binding signal (z-score): -0.206
[20]
  glycan array binding signal (z-score): 0.481
[21]
  glycan array binding signal (z-score): 0.448
[22]
  glycan array binding signal (z-score): 8.18
[23]
  glycan array binding signal (z-score): -0.857
[24]
  glycan array binding signal (z-score): 0.234
[25]
  glycan array binding signal (z-score): -0.669
[26]
  glycan array binding signal (z-score): 0.842
[27]
  glycan array binding signal (z-score): -0.317
[28]
  glycan array binding signal (z-score): 8.54
